Source: paper PMC6104132
No constants are given. Whether binding was seen depends on the method and setting. Binding seen in cells or lysates may run through a third protein. These calls come from enrichment with a bait or labelling near it, and not all partners need be listed. Tags and fused reporters may be left off the sequences shown.

Target: T1, FLAG-Cj0371 protein (C. jejuni NCTC11168) (UniProt Q9PID1)
T1 sequence: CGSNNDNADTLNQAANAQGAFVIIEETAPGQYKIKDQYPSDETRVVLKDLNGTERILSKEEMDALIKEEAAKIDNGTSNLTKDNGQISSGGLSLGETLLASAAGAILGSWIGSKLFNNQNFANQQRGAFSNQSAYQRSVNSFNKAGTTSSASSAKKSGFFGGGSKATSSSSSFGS
Test: affinity purification with mass spectrometry

B1: CheV (cj0285c), chemotaxis protein (protein, UniProt Q0PBM1 1-318)
chain: MFDENIVKTGSNEMELVDFRIFKQGHDKVYEGIYGVNVSKVREIIKIPSLTELPGVPDYIEGIFDLRGVVIPVVNLAKWMQITEPESTMLKPRVIITEFSNILIGFIVHEAKRIRRINWKDIEPATFSTGSGALDKGKITGVTRIENDEVLLILDLESVVEDLGIYAPKTDIDFGKIEKFTGTALILDDSMTARKRVKEMMQQMGFQVVEAKDGVEGINKLEELSQIYGESLNDTLKIIVSDVEMPQMDGFHFAARIKEDPRFKDIPIVFNSSLSNEFMNEKGVQEAGGEGYLVKFNASDFFNEIAKVIKKHQSQEQG
binding: binds
